Experimental data from patent publication US20250163138A1 (Alexion, published 2025).
No constants are given. Whether binding was seen depends on the method and setting. Some entries that bind do so weakly or less than the wild type.

The chains behind the UniProt entries cited, without tags or fusion partners. Residues count along the entry.
UniProt P01031, residues 19-1676: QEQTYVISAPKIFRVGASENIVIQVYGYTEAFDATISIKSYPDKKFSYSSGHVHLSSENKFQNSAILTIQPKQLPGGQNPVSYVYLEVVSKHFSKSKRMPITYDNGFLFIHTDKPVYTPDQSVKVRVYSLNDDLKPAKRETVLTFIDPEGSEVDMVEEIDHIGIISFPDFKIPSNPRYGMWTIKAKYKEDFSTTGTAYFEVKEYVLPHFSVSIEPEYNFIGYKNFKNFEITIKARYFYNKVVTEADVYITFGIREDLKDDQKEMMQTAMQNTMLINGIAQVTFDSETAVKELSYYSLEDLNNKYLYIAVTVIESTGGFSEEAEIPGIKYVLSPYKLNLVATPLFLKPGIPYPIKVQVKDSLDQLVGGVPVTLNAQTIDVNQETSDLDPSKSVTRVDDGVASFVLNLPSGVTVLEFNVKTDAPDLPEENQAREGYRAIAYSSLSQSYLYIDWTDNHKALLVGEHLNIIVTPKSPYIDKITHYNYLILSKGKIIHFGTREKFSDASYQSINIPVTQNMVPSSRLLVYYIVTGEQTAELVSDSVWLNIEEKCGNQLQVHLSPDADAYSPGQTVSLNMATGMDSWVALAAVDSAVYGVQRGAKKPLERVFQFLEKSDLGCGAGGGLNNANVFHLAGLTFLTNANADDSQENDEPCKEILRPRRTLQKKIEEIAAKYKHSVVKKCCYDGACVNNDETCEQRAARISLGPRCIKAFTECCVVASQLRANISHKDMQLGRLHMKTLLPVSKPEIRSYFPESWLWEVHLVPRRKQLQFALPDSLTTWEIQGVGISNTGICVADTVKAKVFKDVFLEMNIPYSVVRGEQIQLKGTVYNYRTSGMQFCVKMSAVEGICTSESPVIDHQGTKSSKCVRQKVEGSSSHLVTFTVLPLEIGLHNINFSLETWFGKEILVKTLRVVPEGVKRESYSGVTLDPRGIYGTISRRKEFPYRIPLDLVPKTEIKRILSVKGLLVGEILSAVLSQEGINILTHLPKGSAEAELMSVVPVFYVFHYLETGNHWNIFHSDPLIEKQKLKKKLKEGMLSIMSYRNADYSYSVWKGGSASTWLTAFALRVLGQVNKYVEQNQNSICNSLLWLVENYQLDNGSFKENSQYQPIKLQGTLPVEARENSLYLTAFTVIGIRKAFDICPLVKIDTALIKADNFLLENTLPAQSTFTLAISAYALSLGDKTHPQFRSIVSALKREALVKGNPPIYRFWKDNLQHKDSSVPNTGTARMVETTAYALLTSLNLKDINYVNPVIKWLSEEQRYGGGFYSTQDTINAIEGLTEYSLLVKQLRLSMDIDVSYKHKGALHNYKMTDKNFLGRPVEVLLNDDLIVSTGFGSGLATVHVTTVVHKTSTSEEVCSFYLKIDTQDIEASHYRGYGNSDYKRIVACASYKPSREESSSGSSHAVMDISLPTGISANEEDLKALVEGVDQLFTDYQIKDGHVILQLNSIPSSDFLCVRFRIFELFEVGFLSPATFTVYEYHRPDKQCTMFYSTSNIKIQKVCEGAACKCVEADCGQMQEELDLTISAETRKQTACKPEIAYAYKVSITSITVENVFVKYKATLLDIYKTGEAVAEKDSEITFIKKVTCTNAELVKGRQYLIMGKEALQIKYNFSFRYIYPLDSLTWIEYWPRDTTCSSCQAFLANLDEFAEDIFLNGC
UniProt P02768, residues 25-609: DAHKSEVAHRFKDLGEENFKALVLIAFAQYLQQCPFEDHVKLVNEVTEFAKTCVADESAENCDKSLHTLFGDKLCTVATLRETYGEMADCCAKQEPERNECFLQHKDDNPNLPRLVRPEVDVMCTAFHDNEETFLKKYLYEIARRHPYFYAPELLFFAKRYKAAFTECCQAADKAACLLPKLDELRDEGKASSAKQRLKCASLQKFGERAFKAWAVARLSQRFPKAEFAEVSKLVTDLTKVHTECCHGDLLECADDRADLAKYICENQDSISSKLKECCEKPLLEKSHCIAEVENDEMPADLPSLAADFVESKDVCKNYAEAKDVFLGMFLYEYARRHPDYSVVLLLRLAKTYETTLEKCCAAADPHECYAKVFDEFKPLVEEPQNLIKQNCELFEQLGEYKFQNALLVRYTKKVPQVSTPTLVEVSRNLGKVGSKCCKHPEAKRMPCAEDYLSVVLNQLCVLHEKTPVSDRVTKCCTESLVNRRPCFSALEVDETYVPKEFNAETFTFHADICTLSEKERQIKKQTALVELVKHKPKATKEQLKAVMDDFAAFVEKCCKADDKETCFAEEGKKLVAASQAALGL

B1: LCP0115 (VHH)
VHH: EVQLVESGGGLVQAGGSLRLSCAASGRTFSGILSPYAVGWFRQAPGKGREFVSTITSGGSAIYTDSVKGRFTLSRDNAKDTVYLQMNSLKPEDTAVYYCAVRTRRYGSNLGEVPQENEYGYWGQGTQVTVSS
notes: llama anti-C5 VHH, tested as VHH-His fusion; not shown: His-tag
B2: LCP0302 (VHH)
VHH: EVQLVESGGGLVQAGGSLRLSCAASGRTFSGILSAYAVGWFRQAPGKEREFVSTITSGGSTLSADSVKGRFTLSRDNAKDTVYLQMNSLKPEDTAVYYCAVRTWPYGSNRGEVPTENEYGHWGQGTQVTVSS
notes: as for B1
B3: LCP0095 (VHH)
VHH: EVQLVESGGGLVQAGGSLRLSCTASGRTISTTVMAWFRQAPGKEREFVAADHWGDAGTVYADSVKGRFTISRDNAKNTVYLQMNYLKPEDTSVYYCAARPPTYVGTSRDSRAYDYWGQGTQVTVSS
notes: as for B1
B4: TPP-3231 (bispecific antibody)
chain: EVQLVESGGGLVKPGGSLRLSCAASGRPVSNYAAAWFRQAPGKEREFVSAINWQKTATYADSVKGRFTISRDNAKNSLYLQMNSLRAEDTAVYYCAAVFRVVAPKTQYDYDYWGQGTLVTVSSPNLLGGPEVQLVESGGGLVQPGGSLRLSCAASGRAHSDYAMAWFRQAPGQEREFVAGIGWSGGDTLYADSVRGRFTNSRDNSKNTLYLQMNSLRAEDTAVYYCAARQGQYIYSSMRSDSYDYWGQGTLVTVSS
B5: TPP-3232 (bispecific antibody)
chain: EVQLVESGGGLVKPGGSLRLSCAASGRPVSNYAAAWFRQAPGKEREFVSAINWQKTATYADSVKGRFTISRDNAKNSLYLQMNSLRAEDTAVYYCAAVFRVVAPKTQYDYDYWGQGTLVTVSSGGGGGGEVQLVESGGGLVQPGGSLRLSCAASGRAHSDYAMAWFRQAPGQEREFVAGIGWSGGDTLYADSVRGRFTNSRDNSKNTLYLQMNSLRAEDTAVYYCAARQGQYIYSSMRSDSYDYWGQGTLVTVSS
B6: TPP-3233 (bispecific antibody)
chain: EVQLVESGGGLVKPGGSLRLSCAASGRPVSNYAAAWFRQAPGKEREFVSAINWQKTATYADSVKGRFTISRDNAKNSLYLQMNSLRAEDTAVYYCAAVFRVVAPKTQYDYDYWGQGTLVTVSSGGGGGGGGGGGGEVQLVESGGGLVQPGGSLRLSCAASGRAHSDYAMAWFRQAPGQEREFVAGIGWSGGDTLYADSVRGRFTNSRDNSKNTLYLQMNSLRAEDTAVYYCAARQGQYIYSSMRSDSYDYWGQGTLVTVSS
B7: TPP-3234 (bispecific antibody)
chain: EVQLVESGGGLVKPGGSLRLSCAASGRPVSNYAAAWFRQAPGKEREFVSAINWQKTATYADSVKGRFTISRDNAKNSLYLQMNSLRAEDTAVYYCAAVFRVVAPKTQYDYDYWGQGTLVTVSSAPELPGGPEVQLVESGGGLVQPGGSLRLSCAASGRAHSDYAMAWFRQAPGQEREFVAGIGWSGGDTLYADSVRGRFTNSRDNSKNTLYLQMNSLRAEDTAVYYCAARQGQYIYSSMRSDSYDYWGQGTLVTVSS
B8: TPP-3235 (bispecific antibody)
chain: EVQLVESGGGLVKPGGSLRLSCAASGRPVSNYAAAWFRQAPGKEREFVSAINWQKTATYADSVKGRFTISRDNAKNSLYLQMNSLRAEDTAVYYCAAVFRVVAPKTQYDYDYWGQGTLVTVSSSEPQPQPGEVQLVESGGGLVQPGGSLRLSCAASGRAHSDYAMAWFRQAPGQEREFVAGIGWSGGDTLYADSVRGRFTNSRDNSKNTLYLQMNSLRAEDTAVYYCAARQGQYIYSSMRSDSYDYWGQGTLVTVSS
B9: CRL0500 (bispecific antibody)
chain: EVQLVESGGGLVKPGGSLRLSCAASGRPVSNYAAAWFRQAPGKEREFVSAINWQKTATYADSVKGRFTISRDNAKNSLYLQMNSLRAEDTAVYYCAAVFRVVAPKTQYDYDYWGQGTLVTVSSGGGGSGGGGSGGGGSEVQLVESGGGLVQPGGSLRLSCAASGRAHSDYAMAWFRQAPGQEREFVAGIGWSGGDTLYADSVRGRFTNSRDNSKNTLYLQMNSLRAEDTAVYYCAARQGQYIYSSMRSDSYDYWGQGTLVTVSS
notes: anti-albumin VHH / (G4S)3 / anti-C5 VHH fusion, purified by Protein A; also called CRL0500 (HSA/C5)
B10: LCP0123 (VHH)
VHH: EVQLVESGGGLVQAGGSLTLSCAMSGGTRPFEDYVMAWFRQATGKEREFVATITWMGETTYYKDSVNGRFAISRDNAENTVALQMNSLEPEDTAVYFCAAHSRSSFSTSGGRYNPRPTEYDYWGQGTQVTVSS
notes: as for B1
B11: LCP0136 (VHH)
VHH: EVQLVESGGGLVQPGESLRLSCAISGFAFTDVGMSWVRQAPGKGLEWVSSISSGSSITTYSDSVKGRFTISRDNARNTLFLQMNSLKPEDTAVYYCGRYYCTGLGCHPRRDSALWGQGTQVTVSS
notes: as for B1
B12: LCP0143 (VHH)
VHH: EVQLVESGGGLVQAGGSLRLSCAAPEMGATINVMAWYRQAPGKQRELVARLPLDNNIDYGDFAKGRFTISRDITRNTVYLQMNNLKPDDTAVYYCNVLLSRQINGAYVHWGQGTQVTVSS
notes: as for B1
B13: LCP0146 (VHH)
VHH: EVQLVESGGGLVQAGGSLRLSCAASGRAFSDYAMAWFRQAPGKEREFVAGIGWSGGDTLYADSVRGRFTNSKDNAKNRMSLQMNSLKPEDTAVYYCAARQGQYIYSSMRSDSYDYWGQGTQVTVSS
notes: as for B1
B14: LCP0296 (VHH)
VHH: EVQLVESGGGVVQAGDSLTLTCTAPVGTISDYGMGWFRQAPGKEREFVASISWGGMWTDYADSVKGRFTISRDNDKNAVYLRMNSLNAEDTAVYYCGRGRMYRGIGNSLAQPKSYGYWGQGTQVTVSS
notes: as for B1

Key:
[1] = target: human complement protein C5 (human) (UniProt P01031); test: BLI, VHH-His on anti-penta-His tips, 50 nM C5
[2] = target: cynomolgus monkey (cyno) complement protein C5 (cynomolgus monkey); test: BLI, VHH-His on anti-penta-His tips, 50 nM C5
[3] = target: T1, human complement protein C5 (human, UniProt P01031 19-1676); test: SPR (Biacore 3000), biotin-hC5 on CAP chip, pH 7.4
T1 construct: Native C5 is a two-chain protein made from one precursor; also called hC5; human C5

human serum albumin [4] = target: T2, human serum albumin (human, UniProt P02768 25-609); test: SPR (Biacore 3000), biotin-hC5 on CAP chip, pH 7.4
T2 construct: also called HSA; human albumin

[5] = target: T1, human complement protein C5; test: sandwich: biotin-hC5 on CAP chip, fusion, then albumin; pH 7.4
human serum albumin [6] = target: T2, human serum albumin; test: as above
[7] = target: human complement protein C5 (human) (UniProt P01031); test: SPR (Biacore 3000), biotin-hC5 on CAP chip, pH 7.4
[8] = target: human complement protein C5 (human) (UniProt P01031); test: sandwich: biotin-hC5 on CAP chip, fusion, then albumin; pH 7.4

Binder | binding [1] | binding [2] | binding [3] | binding (human serum albumin [4]) | binding [5] | binding (human serum albumin [6]) | binding [7] | binding [8]
B1 | binds | binds | – | – | – | – | – | –
B2 | binds | binds | – | – | – | – | – | –
B3 | binds | binds | – | – | – | – | – | –
B4 | – | – | binds | binds | binds | binds | – | –
B5 | – | – | binds | binds | binds | binds | – | –
B6 | – | – | binds | binds | binds | binds | – | –
B7 | – | – | binds | binds | binds | binds | – | –
B8 | – | – | binds | binds | binds | binds | – | –
B9 | – | – | – | binds | – | binds | binds | binds
B10 | binds | binds | – | – | – | – | – | –
B11 | binds | binds | – | – | – | – | – | –
B12 | binds | binds | – | – | – | – | – | –
B13 | binds | binds | – | – | – | – | – | –
B14 | binds | binds | – | – | – | – | – | –
